Laboratory results from the supplement of paper PMC10735217.
Where a name gives a salt, the structure may show the parent alone. Some of the results follow. Single values are uncertain here, since repeats match poorly.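 In a drug-repurposing library screen, luminescence reads luciferase driven by eight TEAD-binding elements, stably integrated into human kidney-derived cells. Compounds scoring over five robust Z scores above the plate mean are called hits.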

Test system: HEK293A TEAD-LUC reporter
Experiment: TEAD-luciferase reporter activity (YAP activation), robust Z score vs plate; higher = stronger YAP/TEAD activation
Conditions: 24 h

Compound | TEAD-luciferase reporter activity (compound concentration: 200 nM) | TEAD-luciferase reporter activity (compound concentration: 2 uM) | TEAD-luciferase reporter activity (compound concentration: 10 uM)
NC(=O)CCN1CCN(C2Cc3cc(Cl)ccc3Sc3cc(F)ccc32)CC1 (centres undefined) | inactive: -0.57 | inactive: -0.231 | inactive: -1.54
OC1CCN(c2ccc(-c3ccccc3Cl)nn2)CC1 [Lodaxaprine] | inactive: -0.0502 | inactive: 0.211 | inactive: 1.24
CCOC(=O)C1=Cc2ccccc2OC1C(F)(F)F (centres undefined) | inactive: 0.307 | inactive: -0.0353 | inactive: 0.829
CC(C)(Cc1ccc2ccccc2c1)NC[C@@H](O)COc1cccc(Cl)c1C#N | inactive: -2.81 | inactive: -1.75 | inactive: -1.02
Cc1c(C(=O)NCCC(=O)O)s/c(=N/C(=O)c2ccc(C(=N)NCCCC(=O)O)cc2)n1C | inactive: -0.776 | inactive: 2.93 | inactive: -1.01
CCCCCC1C(=O)N2C=C(c3ccccc3)c3ccccc3N2C1=O (centres undefined) | inactive: 0.832 | inactive: -1.63 | inactive: -1.86
COc1cc2c(N3CCN(C(=O)Nc4ccc(OC(C)C)cc4)CC3)ncnc2cc1OCCCN1CCCCC1 [tandutinib] | inactive: 0.404 | inactive: -0.493 | inactive: 1.34
O=C(C=C(O)c1nnc[nH]1)c1ccc(Cc2ccc(F)cc2)o1 | inactive: -0.457 | inactive: 1.27 | inactive: 0.562
NC[C@@H]1O[C@H](O[C@H]2[C@@H](O)[C@H](O[C@@H]3[C@@H](O)[C@H](N)C[C@H](N)[C@H]3O[C@H]3O[C@H](CN)[C@@H](O)[C@H](O)[C@H]3N)O[C@@H]2CO)[C@H](N)[C@@H](O)[C@@H]1O [Neomycin sulfate] | inactive: -0.385 | inactive: -1.14 | inactive: -0.379
c1ccc2c(c1)OCC(CN1CCCCC1)O2 (centres undefined) | inactive: 0.077 | inactive: -0.326 | inactive: -0.943
N#CC1(c2ccc(NC(=O)c3cccnc3NCc3ccncc3)cc2)CCCC1 [Apatinib mesylate] | inactive: -1.76 | inactive: 0.141 | inactive: -0.0397
CC[C@H](C)[C@@H]1NC(=O)[C@H](Cc2c[nH]c3ccccc23)NC(=O)[C@H]([C@@H](C)O)NC(=O)[C@@H]2CCCN2C(=O)[C@H]2CCCN2C(=O)[C@H](CO)NC(=O)[C@H](C)NC(=O)[C@H](CCN)NC(=O)[C@H](CCN)NC(=O)[C@H](Cc2c[nH]c3ccccc23)NC(=O)[C@H](CCN)NC(=O)[C@@H](CCN)NC(=O)[C@H](CCCN)NC(=O)[C@H](CCN)NC1=O [Murepavadin] | inactive: 0.163 | inactive: 3.02 | inactive: -1.31
CN[C@@H]1COc2ccccc2[C@H](O)C1 [exepanol] | inactive: -0.36 | inactive: 0.475 | active: 10.7
COc1ccc2c(c1OC)CCC(NC(C)C(O)c1ccc(O)cc1)C2 (centres undefined) | inactive: -0.843 | inactive: -0.588 | inactive: 0.321
CC/C=C/CC(=O)N[C@@H](Cc1ccc(O)cc1)C(=O)N[C@@H](C)C(=O)N[C@@H](CC(=O)O)C(=O)N[C@@H](C)C(=O)N[C@H](C(=O)N[C@@H](Cc1ccccc1)C(=O)N[C@H](C(=O)N[C@@H](CC(N)=O)C(=O)N[C@@H](CO)C(=O)N[C@@H](Cc1ccc(O)cc1)C(=O)N[C@@H](CCCNC(=N)N)C(=O)N[C@@H](CCCCN)C(=O)N[C@H](C(=O)NCC(=O)N[C@@H](CC(C)C)C(=O)N[C@@H](CCC(N)=O)C(=O)N[C@@H](CC(C)C)C(=O)N[C@@H](CO)C(=O)N[C@@H](C)C(=O)N[C@@H](CCCNC(=N)N)C(=O)N[C@@H](CCCCN)C(=O)N[C@@H](CC(C)C)C(=O)N[C@@H](CC(C)C)C(=O)N[C@@H](CCC(N)=O)C(=O)N[C@@H](CC(=O)O)C(=O)N[C@H](C(=O)N[C@@H](CCSC)C(=O)N[C@@H](CO)C(=O)N[C@@H](CCCNC(=N)N)C(=O)N[C@@H](CCC(N)=O)C(=O)NCC(=O)N[C@@H](CCC(N)=O)C(=O)N[C@@H](CCC(=O)O)C(=O)N[C@@H](CO)C(=O)N[C@@H](CC(N)=O)C(=O)N[C@@H](CCC(N)=O)C(=O)N[C@@H](CCC(=O)O)C(=O)N[C@@H](CCCNC(=N)N)C(=O)N[C@@H](C)C(=O)NCC(=O)N[C@@H](CCCNC(=N)N)C(=O)N[C@@H](C)C(=O)N[C@@H](CCCNC(=N)N)C(=O)N[C@@H](CC(C)C)C(N)=O)[C@@H](C)CC)C(C)C)[C@@H](C)O)[C@@H](C)CC [Tesamorelin] | inactive: -1.35 | inactive: -0.528 | inactive: 0.819
CSCC[C@H](NC(=O)[C@H](Cc1c[nH]c2ccccc12)NC(=O)CNC(=O)C(NC(=O)[C@H](Cc1ccc(OS(=O)(=O)O)cc1)NC(=O)[C@H](CC(=O)O)NC(=O)[C@H](CCC(N)=O)NC(=O)[C@@H]1CCC(=O)N1)[C@@H](C)O)C(=O)N[C@@H](CC(=O)O)C(=O)N[C@@H](Cc1ccccc1)C(N)=O (some centres undefined) [ceruletide, Fukuoka] | inactive: -0.841 | inactive: 0.182 | inactive: 3.38
CC(C)C[C@H](C(=O)NCC(N)=O)N(C)C(=O)[C@@H]1CCCN1 | inactive: -1.35 | inactive: -0.804 | inactive: -0.628
COc1ccc([C@@H](O)c2cc(-c3ncnc4cc(N5CCOCC5)ccc34)c(F)cc2Cl)nn1 | inactive: -0.0257 | inactive: -1.77 | inactive: 1.8
C[Se]CC[C@H](N)C(=O)O [L-SelenoMethionine] | inactive: -1.27 | inactive: -0.746 | inactive: -0.66
CN1C(=O)N(c2cc(Cl)cc(Cl)c2)C(=O)[C@]12CN(Cc1cc(C(=O)O)cs1)C[C@H]2c1ccc(C#N)cc1 | inactive: -1.49 | inactive: -0.77 | inactive: 0.231
CN1NC(C(N)=O)=CCC1=O | inactive: 0.789 | inactive: -0.723 | inactive: 0.217
CCOC(=O)[C@@](C)(N)Cc1ccc(O)c(O)c1 | inactive: 1.52 | inactive: -0.502 | inactive: -1.23
N#Cc1ccc(NC(=O)Nc2ccccc2Br)c2[nH]nnc12 | inactive: -2.6 | inactive: -0.965 | inactive: 0.381

2 of these compounds, reformatted.
Compound	TEAD-luciferase reporter activity (compound concentration: 200 nM)	TEAD-luciferase reporter activity (compound concentration: 2 uM)	TEAD-luciferase reporter activity (compound concentration: 10 uM)
CCOC(=O)C1=Cc2ccccc2OC1C(F)(F)F (centres undefined)	inactive: 0.307	inactive: -0.0353	inactive: 0.829
CC(C)(Cc1ccc2ccccc2c1)NC[C@@H](O)COc1cccc(Cl)c1C#N	inactive: -2.81	inactive: -1.75	inactive: -1.02
